# Measured values: publication doi:10.1101/2021.05.24.445478
# Amino acid sequences for entries named in this document (tags omitted).
# UniProt O75909, whole entry: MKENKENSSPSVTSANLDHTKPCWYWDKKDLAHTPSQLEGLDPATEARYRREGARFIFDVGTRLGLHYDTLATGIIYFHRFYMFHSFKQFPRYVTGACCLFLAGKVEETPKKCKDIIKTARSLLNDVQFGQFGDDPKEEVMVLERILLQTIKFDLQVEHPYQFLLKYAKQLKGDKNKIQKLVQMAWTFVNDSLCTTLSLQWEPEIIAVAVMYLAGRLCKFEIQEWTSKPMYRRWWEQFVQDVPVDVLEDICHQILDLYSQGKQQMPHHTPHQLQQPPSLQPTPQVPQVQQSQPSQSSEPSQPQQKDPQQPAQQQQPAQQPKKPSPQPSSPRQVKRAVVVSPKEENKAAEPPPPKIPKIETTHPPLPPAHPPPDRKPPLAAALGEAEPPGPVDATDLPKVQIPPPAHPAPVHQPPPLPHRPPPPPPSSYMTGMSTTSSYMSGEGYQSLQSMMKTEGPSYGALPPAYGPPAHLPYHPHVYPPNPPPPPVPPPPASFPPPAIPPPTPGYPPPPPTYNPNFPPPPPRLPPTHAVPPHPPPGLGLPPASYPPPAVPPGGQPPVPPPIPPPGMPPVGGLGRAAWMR
# UniProt Q14004, whole entry: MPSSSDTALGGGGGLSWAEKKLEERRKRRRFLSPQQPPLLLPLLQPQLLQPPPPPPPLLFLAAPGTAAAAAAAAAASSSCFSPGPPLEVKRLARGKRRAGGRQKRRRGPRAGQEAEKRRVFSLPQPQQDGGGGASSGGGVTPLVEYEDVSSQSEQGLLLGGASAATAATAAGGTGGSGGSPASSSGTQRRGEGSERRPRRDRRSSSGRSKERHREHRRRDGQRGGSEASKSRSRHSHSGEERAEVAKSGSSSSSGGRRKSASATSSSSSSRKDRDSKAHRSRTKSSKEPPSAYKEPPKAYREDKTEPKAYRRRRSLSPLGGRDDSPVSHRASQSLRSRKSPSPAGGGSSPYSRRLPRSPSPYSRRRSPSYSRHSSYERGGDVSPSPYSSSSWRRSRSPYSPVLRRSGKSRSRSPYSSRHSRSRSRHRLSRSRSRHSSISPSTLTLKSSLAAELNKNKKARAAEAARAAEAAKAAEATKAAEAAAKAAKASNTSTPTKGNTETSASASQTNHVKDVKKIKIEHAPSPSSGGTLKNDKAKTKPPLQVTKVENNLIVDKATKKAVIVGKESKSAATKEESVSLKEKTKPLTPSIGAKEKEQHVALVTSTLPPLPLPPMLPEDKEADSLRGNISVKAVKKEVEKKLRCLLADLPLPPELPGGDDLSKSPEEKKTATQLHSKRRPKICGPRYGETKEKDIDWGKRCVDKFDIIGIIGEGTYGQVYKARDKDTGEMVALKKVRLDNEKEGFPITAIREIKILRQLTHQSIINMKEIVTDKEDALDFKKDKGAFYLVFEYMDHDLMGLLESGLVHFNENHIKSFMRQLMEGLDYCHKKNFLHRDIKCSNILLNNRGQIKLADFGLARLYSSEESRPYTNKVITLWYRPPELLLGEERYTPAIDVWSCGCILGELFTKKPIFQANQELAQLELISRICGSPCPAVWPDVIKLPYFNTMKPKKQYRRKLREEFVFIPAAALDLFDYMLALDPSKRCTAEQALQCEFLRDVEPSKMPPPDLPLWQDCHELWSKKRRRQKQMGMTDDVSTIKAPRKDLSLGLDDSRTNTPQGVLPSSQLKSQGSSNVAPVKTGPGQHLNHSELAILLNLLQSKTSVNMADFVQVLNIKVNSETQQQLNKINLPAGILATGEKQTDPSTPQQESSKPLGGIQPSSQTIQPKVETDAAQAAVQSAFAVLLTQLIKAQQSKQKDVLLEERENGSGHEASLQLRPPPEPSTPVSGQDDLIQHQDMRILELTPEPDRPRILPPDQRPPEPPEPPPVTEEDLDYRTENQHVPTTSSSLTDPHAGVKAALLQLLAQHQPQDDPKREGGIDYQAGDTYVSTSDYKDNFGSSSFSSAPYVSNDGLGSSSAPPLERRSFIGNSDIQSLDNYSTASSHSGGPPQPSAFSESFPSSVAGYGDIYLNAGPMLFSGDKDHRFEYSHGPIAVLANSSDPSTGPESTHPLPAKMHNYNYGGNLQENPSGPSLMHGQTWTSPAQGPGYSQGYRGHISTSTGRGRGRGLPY
# These are yes or no findings as the source states them, for the method shown. Binding seen in cells or lysates may run through a third protein. Some binding calls cover weakened binding; strength is not graded here.
# Target: FLAG-tagged CycK protein (human) (UniProt O75909)
# Experiment: co-IP
substance,measurement,value
HA-tagged CDK13 protein (from UniProt Q14004 1-1512),binding,binds
